Laboratory results: paper PMC13172546
These are yes or no findings as the source states them, for the method shown. For some assays here: Binding seen in cells or lysates may run through a third protein. Some binding calls cover weakened binding; strength is not graded here.

Protein sequences, listed by entry. Tags and fused reporters are not part of them.
UniProt P46937: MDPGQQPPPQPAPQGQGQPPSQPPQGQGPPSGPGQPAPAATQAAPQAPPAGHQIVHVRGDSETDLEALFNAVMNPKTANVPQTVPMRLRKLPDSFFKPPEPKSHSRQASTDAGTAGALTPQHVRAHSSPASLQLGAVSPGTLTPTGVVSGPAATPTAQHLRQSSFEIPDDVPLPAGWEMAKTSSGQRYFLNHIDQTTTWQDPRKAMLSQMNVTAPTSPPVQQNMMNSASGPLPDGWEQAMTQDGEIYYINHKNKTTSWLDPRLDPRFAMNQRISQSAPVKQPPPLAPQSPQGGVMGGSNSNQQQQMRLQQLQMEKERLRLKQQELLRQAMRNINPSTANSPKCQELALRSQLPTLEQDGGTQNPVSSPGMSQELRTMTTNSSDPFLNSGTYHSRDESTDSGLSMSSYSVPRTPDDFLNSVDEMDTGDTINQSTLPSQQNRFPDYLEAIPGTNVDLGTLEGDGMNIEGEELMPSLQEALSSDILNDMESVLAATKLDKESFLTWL
UniProt Q2KHR3: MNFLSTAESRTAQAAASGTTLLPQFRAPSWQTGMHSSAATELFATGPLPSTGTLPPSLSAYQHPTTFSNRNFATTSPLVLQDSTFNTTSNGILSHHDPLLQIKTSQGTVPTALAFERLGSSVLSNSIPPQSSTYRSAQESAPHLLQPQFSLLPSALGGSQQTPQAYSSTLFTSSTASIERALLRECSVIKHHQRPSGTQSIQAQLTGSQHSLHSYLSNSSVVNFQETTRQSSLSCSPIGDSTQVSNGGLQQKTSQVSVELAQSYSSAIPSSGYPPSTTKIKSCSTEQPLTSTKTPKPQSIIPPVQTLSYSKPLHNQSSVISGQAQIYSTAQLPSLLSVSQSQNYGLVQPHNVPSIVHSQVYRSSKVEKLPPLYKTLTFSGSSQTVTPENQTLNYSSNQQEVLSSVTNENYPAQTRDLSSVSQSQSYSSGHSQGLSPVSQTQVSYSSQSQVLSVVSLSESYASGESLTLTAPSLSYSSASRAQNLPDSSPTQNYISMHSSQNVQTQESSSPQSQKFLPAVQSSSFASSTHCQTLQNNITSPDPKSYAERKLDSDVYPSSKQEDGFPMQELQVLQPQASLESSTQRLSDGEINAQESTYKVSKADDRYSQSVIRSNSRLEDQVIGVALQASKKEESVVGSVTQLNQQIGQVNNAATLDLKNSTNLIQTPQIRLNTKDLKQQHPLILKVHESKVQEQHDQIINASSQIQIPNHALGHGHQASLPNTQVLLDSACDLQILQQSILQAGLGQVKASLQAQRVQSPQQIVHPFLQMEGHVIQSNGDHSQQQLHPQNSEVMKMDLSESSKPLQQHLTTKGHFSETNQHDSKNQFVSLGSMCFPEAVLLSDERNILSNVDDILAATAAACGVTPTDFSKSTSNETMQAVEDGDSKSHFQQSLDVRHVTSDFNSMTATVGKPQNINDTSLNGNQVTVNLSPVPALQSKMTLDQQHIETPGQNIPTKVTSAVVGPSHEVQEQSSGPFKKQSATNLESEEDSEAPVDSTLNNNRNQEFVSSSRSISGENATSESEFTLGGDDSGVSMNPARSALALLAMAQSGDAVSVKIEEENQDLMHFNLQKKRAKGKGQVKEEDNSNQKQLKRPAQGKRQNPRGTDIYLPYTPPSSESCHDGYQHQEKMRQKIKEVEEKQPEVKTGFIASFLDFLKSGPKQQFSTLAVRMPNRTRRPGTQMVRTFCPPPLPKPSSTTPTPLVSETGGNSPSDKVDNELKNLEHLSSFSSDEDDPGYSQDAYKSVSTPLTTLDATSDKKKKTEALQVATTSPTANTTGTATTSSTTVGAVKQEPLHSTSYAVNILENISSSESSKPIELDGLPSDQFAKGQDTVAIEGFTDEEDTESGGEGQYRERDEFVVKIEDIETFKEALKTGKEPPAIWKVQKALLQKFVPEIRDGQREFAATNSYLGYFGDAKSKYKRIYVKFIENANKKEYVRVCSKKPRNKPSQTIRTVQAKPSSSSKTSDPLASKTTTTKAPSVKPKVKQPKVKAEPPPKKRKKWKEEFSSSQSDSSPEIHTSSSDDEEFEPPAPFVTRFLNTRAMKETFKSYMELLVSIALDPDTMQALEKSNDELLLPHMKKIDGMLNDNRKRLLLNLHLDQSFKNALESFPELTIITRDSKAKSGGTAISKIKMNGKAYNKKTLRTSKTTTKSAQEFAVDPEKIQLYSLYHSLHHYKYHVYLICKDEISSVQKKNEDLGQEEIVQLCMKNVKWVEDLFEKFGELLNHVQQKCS

Experiments:
[1] = biological target: YAP1 (endogenous) (human (endogenous in H1 hESCs)) (UniProt P46937); assay: SEC; nuclear extracts of WT H1 hESCs on a Superose 6 Increase 10/300 GL column in 1x PBS; fractions analysed by western blot for QSER1 and YAP1
[2] = biological target: YAP1-MYC-BIR2 fusion protein (human) (UniProt P46937); assay: co-IP; YAP1 antibody immunoprecipitation in the doxycycline-inducible YAP1-Myc-Bir2 hESC line with and without doxycycline; IPH buffer (50 mM Tris/HCl, 150 mM NaCl, 5 mM EDTA, 0.5% Igepal); western blot with QSER1, TEAD4 and YAP1 antibodies

- binding [1]: binds
- binding [2]: binds
Substance: QSER1 (from UniProt Q2KHR3 1-1735)
